Laboratory results taken from paper doi:10.1101/2020.05.06.080820.
No constants are given. Whether binding was seen depends on the method and setting. Binding seen in cells or lysates may run through a third protein. Binding can be weak; no strength is given.

Sequences of proteins named here, by UniProt entry; tags and fusion partners are left off. A change or cut given only in a name is not applied to a line headed by its entry.
UniProt Q3TDN0: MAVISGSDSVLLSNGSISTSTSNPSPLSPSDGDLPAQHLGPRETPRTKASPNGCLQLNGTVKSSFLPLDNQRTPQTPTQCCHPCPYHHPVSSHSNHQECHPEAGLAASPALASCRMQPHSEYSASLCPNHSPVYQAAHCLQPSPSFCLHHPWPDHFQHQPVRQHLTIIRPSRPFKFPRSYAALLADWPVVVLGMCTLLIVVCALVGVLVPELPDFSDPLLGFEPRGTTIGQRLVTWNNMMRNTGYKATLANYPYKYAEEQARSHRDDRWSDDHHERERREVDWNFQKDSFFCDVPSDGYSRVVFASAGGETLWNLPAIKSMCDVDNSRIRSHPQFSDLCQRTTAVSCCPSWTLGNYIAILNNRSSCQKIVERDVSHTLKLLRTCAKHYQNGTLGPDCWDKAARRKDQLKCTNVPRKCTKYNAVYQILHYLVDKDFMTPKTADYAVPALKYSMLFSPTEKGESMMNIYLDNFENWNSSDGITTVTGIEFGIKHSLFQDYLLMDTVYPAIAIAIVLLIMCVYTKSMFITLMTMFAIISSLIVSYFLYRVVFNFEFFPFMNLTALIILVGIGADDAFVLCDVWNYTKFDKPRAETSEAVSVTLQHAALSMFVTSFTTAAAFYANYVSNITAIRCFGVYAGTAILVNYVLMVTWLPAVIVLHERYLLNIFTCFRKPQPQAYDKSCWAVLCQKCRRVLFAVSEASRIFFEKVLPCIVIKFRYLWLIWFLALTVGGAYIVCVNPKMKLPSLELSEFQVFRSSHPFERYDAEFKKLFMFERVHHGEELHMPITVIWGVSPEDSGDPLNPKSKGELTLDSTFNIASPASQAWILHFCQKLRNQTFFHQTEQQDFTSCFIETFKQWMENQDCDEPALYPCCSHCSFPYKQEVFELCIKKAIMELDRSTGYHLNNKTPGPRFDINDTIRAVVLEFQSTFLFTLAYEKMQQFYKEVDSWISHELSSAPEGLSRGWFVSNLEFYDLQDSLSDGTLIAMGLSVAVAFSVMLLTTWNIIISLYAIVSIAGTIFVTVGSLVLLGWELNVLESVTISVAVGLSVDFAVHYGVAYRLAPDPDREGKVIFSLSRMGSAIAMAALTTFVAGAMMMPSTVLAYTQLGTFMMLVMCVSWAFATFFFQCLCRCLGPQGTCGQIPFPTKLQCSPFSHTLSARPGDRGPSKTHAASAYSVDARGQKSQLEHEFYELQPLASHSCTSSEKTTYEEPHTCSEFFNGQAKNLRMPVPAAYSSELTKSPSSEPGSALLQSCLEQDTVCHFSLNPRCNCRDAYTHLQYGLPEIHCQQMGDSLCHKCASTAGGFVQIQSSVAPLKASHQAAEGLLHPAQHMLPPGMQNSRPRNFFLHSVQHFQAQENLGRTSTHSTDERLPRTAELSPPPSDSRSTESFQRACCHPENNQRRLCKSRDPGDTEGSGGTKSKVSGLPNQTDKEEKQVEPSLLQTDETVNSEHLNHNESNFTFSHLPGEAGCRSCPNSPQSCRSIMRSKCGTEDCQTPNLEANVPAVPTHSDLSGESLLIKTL
UniProt Q62226: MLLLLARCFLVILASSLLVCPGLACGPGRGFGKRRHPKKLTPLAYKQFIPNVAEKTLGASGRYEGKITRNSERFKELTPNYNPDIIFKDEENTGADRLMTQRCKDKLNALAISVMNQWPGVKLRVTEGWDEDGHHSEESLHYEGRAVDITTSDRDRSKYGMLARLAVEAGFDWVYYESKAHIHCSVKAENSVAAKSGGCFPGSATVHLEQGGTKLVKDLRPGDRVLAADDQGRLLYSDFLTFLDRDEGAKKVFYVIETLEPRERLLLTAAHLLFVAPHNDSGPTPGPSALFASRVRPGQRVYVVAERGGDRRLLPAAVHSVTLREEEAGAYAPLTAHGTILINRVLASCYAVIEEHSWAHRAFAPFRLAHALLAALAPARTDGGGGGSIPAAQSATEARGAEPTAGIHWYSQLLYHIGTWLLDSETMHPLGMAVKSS

Target: DISP-FLAG (Dispatched, SHH deployment protein, FLAG-tagged) (UniProt Q3TDN0)
Assay: co-IP

“Sonic Hedgehog (SHH) (from UniProt Q62226) (ligand)” was tested, and the binding was “binds”.
